The target of test [1] is IκBα (human (endogenous in MCF10A and MCF-7/RT)) (UniProt P25963). The test can be described thus: co-IP; 0.5 mg of cell extract protein (50 mM Tris pH 7.4, 150 mM NaCl, 5 mM EDTA, 0.5% NP-40) incubated with anti-p65/RelA or anti-IκBα antibody (2 µg) overnight at 4°C, Protein A/G Plus-Agarose; immunoblot with anti-TG2.
The target in test [2] is p65/RelA subunit of NF-κB (human (endogenous in MCF10A and MCF-7/RT)) (UniProt Q04206). The description is as above.

Sequences of proteins named here, by UniProt entry; tags and fusion partners are left off.
UniProt P25963: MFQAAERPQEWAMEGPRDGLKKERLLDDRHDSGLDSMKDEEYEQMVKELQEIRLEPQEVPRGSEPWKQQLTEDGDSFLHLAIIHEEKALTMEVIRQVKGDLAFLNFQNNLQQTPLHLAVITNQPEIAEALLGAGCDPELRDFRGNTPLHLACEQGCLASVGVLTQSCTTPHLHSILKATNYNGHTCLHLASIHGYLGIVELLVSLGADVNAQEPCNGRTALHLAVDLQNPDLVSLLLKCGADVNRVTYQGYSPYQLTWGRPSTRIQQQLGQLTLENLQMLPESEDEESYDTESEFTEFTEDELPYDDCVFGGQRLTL
UniProt Q04206: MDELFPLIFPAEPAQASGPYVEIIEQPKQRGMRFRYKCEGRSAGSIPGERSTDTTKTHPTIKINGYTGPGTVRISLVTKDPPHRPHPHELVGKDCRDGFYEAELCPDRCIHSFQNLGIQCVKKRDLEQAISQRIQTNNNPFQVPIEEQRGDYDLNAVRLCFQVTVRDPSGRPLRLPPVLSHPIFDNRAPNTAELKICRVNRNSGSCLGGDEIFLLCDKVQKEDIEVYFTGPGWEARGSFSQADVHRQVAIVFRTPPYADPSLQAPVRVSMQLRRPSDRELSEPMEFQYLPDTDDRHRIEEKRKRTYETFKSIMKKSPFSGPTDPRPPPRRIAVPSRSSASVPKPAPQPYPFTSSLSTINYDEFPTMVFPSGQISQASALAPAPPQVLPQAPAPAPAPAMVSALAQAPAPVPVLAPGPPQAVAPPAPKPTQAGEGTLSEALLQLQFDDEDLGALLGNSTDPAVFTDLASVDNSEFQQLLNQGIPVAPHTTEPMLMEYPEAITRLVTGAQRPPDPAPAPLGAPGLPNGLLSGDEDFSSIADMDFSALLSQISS

Results are given in words; binding and its absence hold for the method and conditions named. Binding seen in cells or lysates may run through a third protein. Some results given as binding are weak or reduced against the parent protein; the word gives no strength.

B1: catalytically inactive tissue transglutaminase (TG2-C277S) (enzyme, UniProt P21980 1-687)
chain: MAEELVLERCDLELETNGRDHHTADLCREKLVVRRGQPFWLTLHFEGRNYEASVDSLTFSVVTGPAPSQEAGTKARFPLRDAVEEGDWTATVVDQQDCTLSLQLTTPANAPIGLYRLSLEASTGYQGSSFVLGHFILLFNAWCPADAVYLDSEEERQEYVLTQQGFIYQGSAKFIKNIPWNFGQFEDGILDICLILLDVNPKFLKNAGRDCSRRSSPVYVGRVVSGMVNCNDDQGVLLGRWDNNYGDGVSPMSWIGSVDILRRWKNHGCQRVKYGQSWVFAAVACTVLRCLGIPTRVVTNYNSAHDQNSNLLIEYFRNEFGEIQGDKSEMIWNFHCWVESWMTRPDLQPGYEGWQALDPTPQEKSEGTYCCGPVPVRAIKEGDLSTKYDAPFVFAEVNADVVDWIQQDDGSVHKSINRSLIVGLKISTKSVGRDEREDITHTYKYPEGSSEEREAFTRANHLNKLAEKEETGMAMRIRVGQSMNMGSDFDVFAHITNNTAEEYVCRLLLCARTVSYNGILGPECGTKYLLNLNLEPFSEKSVPLCILYEKYRDCLTESNLIKVRALLVEPVINSYLLAERDLYLENPEIKIRILGEPKQKRKLVAEVSLQNPLPVALEGCTFTVEGAGLTEEQKTVEIPDPVEAGEEVKVRMDLLPLHMGLHKLVVNFESDKLKAVKGFRNVIIGPA
As to B1, the binding entry in test [1] and in test [2] was “binds” each time.

B2: tissue transglutaminase (TG2), endogenous in MCF-7/RT cells (enzyme, UniProt P21980 1-687)
chain: MAEELVLERCDLELETNGRDHHTADLCREKLVVRRGQPFWLTLHFEGRNYEASVDSLTFSVVTGPAPSQEAGTKARFPLRDAVEEGDWTATVVDQQDCTLSLQLTTPANAPIGLYRLSLEASTGYQGSSFVLGHFILLFNAWCPADAVYLDSEEERQEYVLTQQGFIYQGSAKFIKNIPWNFGQFEDGILDICLILLDVNPKFLKNAGRDCSRRSSPVYVGRVVSGMVNCNDDQGVLLGRWDNNYGDGVSPMSWIGSVDILRRWKNHGCQRVKYGQCWVFAAVACTVLRCLGIPTRVVTNYNSAHDQNSNLLIEYFRNEFGEIQGDKSEMIWNFHCWVESWMTRPDLQPGYEGWQALDPTPQEKSEGTYCCGPVPVRAIKEGDLSTKYDAPFVFAEVNADVVDWIQQDDGSVHKSINRSLIVGLKISTKSVGRDEREDITHTYKYPEGSSEEREAFTRANHLNKLAEKEETGMAMRIRVGQSMNMGSDFDVFAHITNNTAEEYVCRLLLCARTVSYNGILGPECGTKYLLNLNLEPFSEKSVPLCILYEKYRDCLTESNLIKVRALLVEPVINSYLLAERDLYLENPEIKIRILGEPKQKRKLVAEVSLQNPLPVALEGCTFTVEGAGLTEEQKTVEIPDPVEAGEEVKVRMDLLPLHMGLHKLVVNFESDKLKAVKGFRNVIIGPA
As for B2, the binding entry in test [1] and in test [2] was “binds” each time.

The record behind these values is article PMC3501523.
